Results published in patent US20220185898A1.
No constants are given. Whether binding was seen depends on the method and setting. Some entries that bind do so weakly or less than the wild type.

Sequences of proteins named here, by UniProt entry; tags and fusion partners are left off. A change or cut given only in a name is not applied to a line headed by its entry. Residues count along the entry.
UniProt Q99523: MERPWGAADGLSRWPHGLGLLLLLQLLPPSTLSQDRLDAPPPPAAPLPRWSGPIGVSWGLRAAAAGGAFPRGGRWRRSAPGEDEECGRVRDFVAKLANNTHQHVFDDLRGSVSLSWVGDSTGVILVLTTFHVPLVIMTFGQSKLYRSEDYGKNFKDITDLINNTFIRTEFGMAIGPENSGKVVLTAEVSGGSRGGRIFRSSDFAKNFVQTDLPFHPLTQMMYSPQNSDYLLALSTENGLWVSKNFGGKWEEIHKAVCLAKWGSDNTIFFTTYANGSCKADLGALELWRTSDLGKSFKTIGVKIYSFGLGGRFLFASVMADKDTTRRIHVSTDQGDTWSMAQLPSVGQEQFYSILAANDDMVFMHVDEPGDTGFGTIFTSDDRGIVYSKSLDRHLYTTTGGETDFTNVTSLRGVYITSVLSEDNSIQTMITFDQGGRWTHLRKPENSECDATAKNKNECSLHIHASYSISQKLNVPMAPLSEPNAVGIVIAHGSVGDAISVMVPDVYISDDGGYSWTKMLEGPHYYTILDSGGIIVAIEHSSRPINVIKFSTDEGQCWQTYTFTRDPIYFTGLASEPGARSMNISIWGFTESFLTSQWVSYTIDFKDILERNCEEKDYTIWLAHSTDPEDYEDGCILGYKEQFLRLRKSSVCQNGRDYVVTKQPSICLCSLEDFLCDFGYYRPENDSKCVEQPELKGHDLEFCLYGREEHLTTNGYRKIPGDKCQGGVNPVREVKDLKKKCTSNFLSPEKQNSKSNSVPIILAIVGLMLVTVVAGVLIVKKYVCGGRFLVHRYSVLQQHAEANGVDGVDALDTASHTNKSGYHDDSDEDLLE
UniProt P01138, residues 19-241: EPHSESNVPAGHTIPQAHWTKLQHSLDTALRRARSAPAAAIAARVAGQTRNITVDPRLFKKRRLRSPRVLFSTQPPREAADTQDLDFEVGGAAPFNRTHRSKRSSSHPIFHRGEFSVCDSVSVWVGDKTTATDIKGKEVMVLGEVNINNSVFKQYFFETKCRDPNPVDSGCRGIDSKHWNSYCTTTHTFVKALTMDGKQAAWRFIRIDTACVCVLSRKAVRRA

Molecular target: recombinant human Sortilin, His-tagged (R&D Systems) (human) (UniProt Q99523)
Assay: Biacore SPR, pro-NGF on His-captured human Sortilin (scheme of the assay)

For “human pro-NGF (from UniProt P01138 19-241) (ligand)”, the binding was “binds”.
